# Screening data, single-dose tests

The chains behind the UniProt entries cited, without tags or fusion partners. Residues count along the entry.
UniProt P9WFT3, whole entry: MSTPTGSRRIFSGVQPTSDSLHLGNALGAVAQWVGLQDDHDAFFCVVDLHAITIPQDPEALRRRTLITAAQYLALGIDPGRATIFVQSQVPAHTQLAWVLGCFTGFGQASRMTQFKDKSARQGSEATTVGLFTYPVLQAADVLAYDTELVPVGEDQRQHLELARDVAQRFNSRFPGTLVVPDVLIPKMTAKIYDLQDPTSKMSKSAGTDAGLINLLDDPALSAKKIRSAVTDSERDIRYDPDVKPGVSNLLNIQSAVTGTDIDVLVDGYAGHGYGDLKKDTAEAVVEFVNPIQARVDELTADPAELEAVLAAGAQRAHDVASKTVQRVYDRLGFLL
UniProt Q4DA54, 1-478: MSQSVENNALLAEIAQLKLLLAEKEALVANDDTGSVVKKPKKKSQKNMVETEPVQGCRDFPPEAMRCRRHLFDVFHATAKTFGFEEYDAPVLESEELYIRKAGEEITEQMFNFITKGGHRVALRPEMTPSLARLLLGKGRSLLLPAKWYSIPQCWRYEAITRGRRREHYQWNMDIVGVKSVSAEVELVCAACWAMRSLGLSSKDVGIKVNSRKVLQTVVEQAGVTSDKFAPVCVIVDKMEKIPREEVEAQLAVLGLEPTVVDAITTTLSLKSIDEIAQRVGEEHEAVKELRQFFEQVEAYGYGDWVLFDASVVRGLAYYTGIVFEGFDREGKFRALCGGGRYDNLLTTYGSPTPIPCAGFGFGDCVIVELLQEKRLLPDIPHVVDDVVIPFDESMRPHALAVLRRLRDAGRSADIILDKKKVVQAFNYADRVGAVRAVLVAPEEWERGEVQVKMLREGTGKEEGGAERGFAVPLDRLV
UniProt Q8IDJ8, 1-583: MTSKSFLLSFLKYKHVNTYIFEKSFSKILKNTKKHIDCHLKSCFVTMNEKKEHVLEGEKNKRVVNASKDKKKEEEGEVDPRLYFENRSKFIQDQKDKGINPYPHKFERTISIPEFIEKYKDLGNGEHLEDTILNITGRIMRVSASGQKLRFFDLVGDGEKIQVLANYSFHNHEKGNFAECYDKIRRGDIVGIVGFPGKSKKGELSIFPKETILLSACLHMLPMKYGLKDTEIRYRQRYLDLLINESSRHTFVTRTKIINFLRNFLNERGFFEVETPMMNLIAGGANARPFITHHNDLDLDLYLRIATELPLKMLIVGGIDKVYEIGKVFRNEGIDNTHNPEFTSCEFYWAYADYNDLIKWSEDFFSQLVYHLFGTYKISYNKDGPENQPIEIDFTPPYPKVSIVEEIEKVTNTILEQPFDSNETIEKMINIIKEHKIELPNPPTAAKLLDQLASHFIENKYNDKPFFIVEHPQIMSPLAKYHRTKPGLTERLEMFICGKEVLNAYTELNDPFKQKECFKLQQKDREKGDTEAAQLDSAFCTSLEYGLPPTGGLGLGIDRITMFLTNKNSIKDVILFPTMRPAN
UniProt P9WNZ1, whole entry: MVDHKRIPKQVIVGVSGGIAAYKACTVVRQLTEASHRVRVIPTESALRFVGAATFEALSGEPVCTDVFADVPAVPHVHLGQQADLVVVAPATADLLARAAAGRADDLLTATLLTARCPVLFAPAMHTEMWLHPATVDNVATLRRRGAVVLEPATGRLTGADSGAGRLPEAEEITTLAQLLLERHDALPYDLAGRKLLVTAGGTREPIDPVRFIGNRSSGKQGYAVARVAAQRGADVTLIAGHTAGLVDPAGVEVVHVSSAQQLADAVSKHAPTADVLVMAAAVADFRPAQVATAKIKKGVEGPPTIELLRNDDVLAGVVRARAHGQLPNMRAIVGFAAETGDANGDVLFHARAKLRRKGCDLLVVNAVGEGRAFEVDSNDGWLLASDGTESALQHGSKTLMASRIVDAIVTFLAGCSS
UniProt I6X8D2, whole entry: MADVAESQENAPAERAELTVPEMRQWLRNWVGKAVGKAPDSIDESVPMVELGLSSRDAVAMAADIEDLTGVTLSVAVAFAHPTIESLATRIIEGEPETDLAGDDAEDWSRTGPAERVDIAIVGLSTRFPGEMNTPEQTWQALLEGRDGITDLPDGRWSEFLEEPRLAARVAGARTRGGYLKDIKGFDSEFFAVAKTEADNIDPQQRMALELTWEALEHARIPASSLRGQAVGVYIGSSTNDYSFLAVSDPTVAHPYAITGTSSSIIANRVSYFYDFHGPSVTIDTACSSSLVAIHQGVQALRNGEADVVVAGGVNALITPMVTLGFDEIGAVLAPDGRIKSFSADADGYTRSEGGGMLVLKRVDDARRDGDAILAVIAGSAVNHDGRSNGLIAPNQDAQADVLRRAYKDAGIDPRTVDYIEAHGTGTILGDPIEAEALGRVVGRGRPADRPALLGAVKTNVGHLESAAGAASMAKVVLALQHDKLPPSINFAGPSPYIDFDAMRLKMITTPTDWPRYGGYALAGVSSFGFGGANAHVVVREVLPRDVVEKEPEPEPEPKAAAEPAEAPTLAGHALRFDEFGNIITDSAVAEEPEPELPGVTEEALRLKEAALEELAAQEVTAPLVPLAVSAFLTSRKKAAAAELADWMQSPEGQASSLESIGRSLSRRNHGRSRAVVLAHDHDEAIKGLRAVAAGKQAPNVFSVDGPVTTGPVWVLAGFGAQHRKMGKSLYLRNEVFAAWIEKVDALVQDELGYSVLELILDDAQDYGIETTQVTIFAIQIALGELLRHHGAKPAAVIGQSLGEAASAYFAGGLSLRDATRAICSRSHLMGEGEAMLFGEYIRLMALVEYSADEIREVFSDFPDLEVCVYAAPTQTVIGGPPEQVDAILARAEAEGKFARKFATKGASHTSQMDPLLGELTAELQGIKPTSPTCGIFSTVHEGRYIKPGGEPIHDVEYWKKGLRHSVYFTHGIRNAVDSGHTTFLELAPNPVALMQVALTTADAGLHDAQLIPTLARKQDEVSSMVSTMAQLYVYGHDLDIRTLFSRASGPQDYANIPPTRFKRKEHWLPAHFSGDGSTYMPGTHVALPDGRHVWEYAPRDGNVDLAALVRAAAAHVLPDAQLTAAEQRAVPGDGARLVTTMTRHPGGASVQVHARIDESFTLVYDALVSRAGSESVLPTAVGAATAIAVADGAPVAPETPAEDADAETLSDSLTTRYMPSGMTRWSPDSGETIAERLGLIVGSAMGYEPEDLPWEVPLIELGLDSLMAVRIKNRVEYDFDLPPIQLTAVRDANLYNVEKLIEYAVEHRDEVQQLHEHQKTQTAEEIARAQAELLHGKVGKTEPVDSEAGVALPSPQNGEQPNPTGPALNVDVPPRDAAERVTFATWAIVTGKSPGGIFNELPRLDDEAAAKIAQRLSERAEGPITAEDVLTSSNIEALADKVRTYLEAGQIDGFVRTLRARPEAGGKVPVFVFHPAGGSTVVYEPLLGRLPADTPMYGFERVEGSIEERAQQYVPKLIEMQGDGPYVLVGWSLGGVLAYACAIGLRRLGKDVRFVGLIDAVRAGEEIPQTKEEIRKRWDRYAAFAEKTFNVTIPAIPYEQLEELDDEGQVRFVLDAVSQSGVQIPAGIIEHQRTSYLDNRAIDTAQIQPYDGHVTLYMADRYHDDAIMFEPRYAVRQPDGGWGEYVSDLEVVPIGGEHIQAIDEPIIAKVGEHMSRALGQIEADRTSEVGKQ

Source: ChEMBL document CHEMBL3988442, “University of Dundee, Small-Polar-MMV Screening Library” (2021).

MtTrpRS: 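Tryptophan-tRNA ligase, Mycobacterium tuberculosis (UniProt P9WFT3). Enzyme assay of tryptophanyl-tRNA synthetase; the read-out is not stated. Compounds at 10 µM. Higher most likely means stronger inhibition; the record gives no direction and few retests gave an IC50. About 65,000 compounds were tested under these conditions; 0.098% (about 64) showed 50% or more at least once.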
TcHisRS: 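Enzyme assay of histidyl-tRNA synthetase; the read-out is not stated. Target: Histidine-tRNA ligase, Trypanosoma cruzi CL Brener (UniProt Q4DA54). Tested at 30 µM. The record gives no direction; compounds that gave an IC50 in retests scored well above the rest, so higher reads as stronger inhibition. Of about 69,000 compounds tested this way, about 31 (0.045%) reached 50% or more in at least one test.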
PfKRS1: 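Lysine-tRNA ligase, Plasmodium falciparum 3D7 (UniProt Q8IDJ8). Enzyme assay of the cytosolic lysyl-tRNA synthetase in 384-well plates, read by luminescence. Tested at 30 µM. Higher reads as stronger inhibition, judged from the few compounds that gave an IC50. About 69,000 compounds were tested under these conditions; 0.071% (about 49) showed 50% or more at least once.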
CoaBC: 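Enzyme assay of CoaBC with a phosphate dye (Biomol Green) read at 650 nm. Target: Coenzyme A biosynthesis protein CoaBC, Mycobacterium tuberculosis (UniProt P9WNZ1). Tested at 30 µM. Higher reads as stronger inhibition, judged from the few compounds that gave an IC50. Most strong results did not repeat in a second test. Size under these conditions: about 67,000 compounds, about 40 of them at 50% or above in at least one test.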
Pks13 thioesterase: 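Enzyme assay of the thioesterase domain of polyketide synthase 13; the read-out is not stated. Target: Polyketide synthase Pks13, Mycobacterium tuberculosis (UniProt I6X8D2). Tested at 30 µM. Higher reads as stronger inhibition (inferred from which compounds were picked for retests). Size under these conditions: about 67,000 compounds, about 300 of them at 50% or above in at least one test.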
Leishmania in macrophages: 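Cell assay of Leishmania donovani living inside macrophages; the read-out is not stated. Tested at 30 µM. Direction is inferred from retests: higher values go with stronger inhibition. About 69,000 compounds were tested under these conditions; 1.5% (about 1,000) showed 50% or more at least once.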

Results are given as percent effect.
The record does not define 0% and 100%; most values in the screen are far below 50% and negative numbers occur (in some assays of this library far below -100).
The compounds are a random part of those screened.
A dash means the value is not listed here; it may have been measured.

| # | compound | MtTrpRS | TcHisRS | PfKRS1 | CoaBC | Pks13 thioesterase | Leishmania in macrophages |
|---|---|---|---|---|---|---|---|
| 1 | `O=C(O)CCNC(=O)C1(c2cccc(Br)c2)CCOCC1` | 2.687% | 5.102% | 0.1856% | 7.559% | -21.78% | 12.63% |
| 2 | `Clc1cccc(CNC2CCN(CCc3ccncc3)CC2)c1` | -4.44% | 8.696% | 1.948% | -28.02% | 7.621% | 59.66% |
| 3 | `CCCc1c(C(=O)N2CCN(c3cnccn3)CC2)cnn1C` | -5.21% | 1.724% | 4.11% | 2.381% | - | 3.358% |
| 4 | `[H][C@]12CC[C@]([H])(CN(C(=O)c3ccccc3)C1)N(C(=O)OC(C)C)C2` | - | - | - | - | - | -2.872% |
| 5 | `CC(N)Cc1ccccc1Sc1ccc(O)cc1` (configuration not stated) | 2.365% | 9.278% | 1.966% | -0.8949% | -9.094% | - |
| 6 | `Cc1csc(C2(NC(=O)NCCN3CCOCC3)CCC2)n1` | 1.012% | 5.419% | 6.562% | 5.063% | - | 30.61% |
| 7 | `COCCOC(=O)N1CCN2C[C@@H](CO)[C@H](c3ccccc3)[C@H]2C1` | - | 2.247% | 2.738% | -1.211% | -0.1547% | - |
| 8 | `O=C(CCCc1ccccc1)N1CCC(Nc2cccnn2)CC1` | -8.731% | 7.514% | 1.492% | 4.725% | -6.18% | 22.7% |
| 9 | `O=C(O)C(F)(F)F.c1cc(CNCC2Cn3nncc3CO2)co1` (configuration not stated) | - | - | - | - | - | 20.1% |
| 10 | `CNC(=O)c1cc2c(nc1NCC1CC1)CCN(CC1CC1)CC2` | 1.66% | 2.439% | 3.669% | 4.511% | 42.72% | - |
| 11 | `CC(C)CNc1nc2c(cc1C(=O)NCC1CC1)CCNCC2` | 8.112% | -2.97% | 0.3994% | -24.96% | - | 79% |
| 12 | `CC(C)NC(=O)[C@@H]1CC[C@@H]2[C@@H](CCN2Cc2cn(C)c3ccccc23)O1` | -7.394% | 5.747% | 5.111% | -16.9% | -37.6% | - |
| 13 | `CN1CCN(CC2(O)CCCN(S(=O)(=O)c3cn[nH]c3)CC2)CC1` (configuration not stated) | -2.546% | 3.39% | 2.479% | -28.33% | -17.07% | 4.995% |
| 14 | `CS(=O)(=O)N[C@@H]1CN(Cc2ccoc2)C[C@@H]2CCCO[C@@H]21` | -0.6509% | 1.961% | 4.637% | 4.886% | -30.16% | - |
| 15 | `C=Cc1ccc(C(=O)N2CCCC(Nc3ccc(F)cc3)C2)cc1` (configuration not stated) | 3.793% | 0.8333% | 2.22% | 4.051% | -17.11% | 7.297% |
| 16 | `CS(=O)(=O)N1CCN(C(=O)c2cc(-c3ccco3)cs2)CC1` | 0.4068% | 2.484% | 9.819% | 3.165% | 7.283% | 49.69% |
| 17 | `CCNC(=O)CCN1CCCC1c1cccc2c1OCCO2` (configuration not stated) | 3.114% | 10% | 6.93% | -3.306% | -8.841% | -6.062% |
| 18 | `O=C(CNCC1CCCN1c1cccnn1)NCCc1cccs1` (configuration not stated) | 0.000009% | 23.4% | -2.155% | -31.02% | -27.78% | 12.31% |
| 19 | `COc1ccc(CCC2CCCN(C(=O)c3cnc(N)nc3C)C2)cc1` (configuration not stated) | 2.976% | 6.468% | 0.326% | 9.383% | -25.57% | 21.24% |
| 20 | `CC1CCN(C(=O)c2cc(NC(=O)c3ccccc3)n(C)n2)CC1` | -1.008% | 10.89% | 2.712% | -1.214% | 4.05% | 10.42% |
| 21 | `Cn1cc(CN2CCn3cc(Cn4cccn4)nc3C2)cn1.O=C(O)C(F)(F)F` | - | - | - | - | - | -5.084% |
| 22 | `CCc1nnc(CN2CCC(N3CCN(CC)C3=O)CC2)o1` | -1.755% | 3.79% | 0.5012% | 7.311% | -23.28% | 8.554% |
| 23 | `Cc1nn(C)c2nc(NCCCN3CCCC(C(N)=O)C3)sc12` (configuration not stated) | -0.4666% | -47.52% | 4.068% | -0.1211% | -4.242% | 35.11% |
| 24 | `CC(NC(=O)CNCCn1cccn1)c1ccc2c(c1)CCCC2` (configuration not stated) | -0.2398% | 6.87% | -1.542% | 0.4819% | 0.3079% | 35.16% |
| 25 | `O=S(=O)(Cc1cccc(F)c1)NCC(O)Cc1ccccc1` (configuration not stated) | -0.7819% | 8.163% | 2.322% | 0.3745% | 19.45% | 22.6% |
| 26 | `CC(C)Oc1ccc(CNC(=O)CN(C)S(C)(=O)=O)cc1F` | -3.483% | 2.624% | -0.4251% | 5.355% | -8.04% | -2.474% |
| 27 | `COCCNC(=O)N1CCCCC1CNC(=O)Nc1ccccc1` (configuration not stated) | 1.583% | 7.772% | 10.17% | 1.684% | -5.106% | -22.22% |
| 28 | `c1ccc(NC[C@@H]2CCC[C@@H]3CN(Cc4nccs4)C[C@@H]32)nc1` | -6.296% | 3.093% | 8.343% | 2.463% | -11.83% | - |
| 29 | `Cc1occc1C(=O)N1CCC(C(O)c2ccc(F)cc2)CC1` (configuration not stated) | 4.074% | 14.29% | 2.812% | 1.225% | -2.567% | 10.74% |
| 30 | `Cc1cnn(CC2CCCN2CC(=O)N(C)Cc2ccsc2)c1` (configuration not stated) | -1.675% | 12.81% | 1.477% | -0.3205% | -37.35% | 26.81% |
| 31 | `Cc1cc(C)n(CC(C)NC(=O)c2cc(CN3CCC(O)CC3)on2)n1` (configuration not stated) | -7.366% | 7.006% | 1.034% | - | -35.05% | -7.417% |
| 32 | `[H][C@@]12C[C@H](C(=O)NCc3ccccc3)[C@@]([H])(CN(S(=O)(=O)N(C)C)C1)O2` | - | - | - | - | - | 25.71% |
| 33 | `COC(=O)NCC(=O)N1CCC(Oc2cccc(C)c2)CC1` | -1.338% | 2.703% | 7.018% | 12.73% | -6.883% | -0.2659% |
| 34 | `Cc1ccsc1CN(Cc1cccnc1)C1CC(C)(C)NC(C)(C)C1` | - | 5.495% | 2.903% | -0.4854% | 2.076% | - |
| 35 | `CCNc1ncc(C(=O)NCCNc2ccncc2C)cn1` | -1.881% | -13.53% | 4.931% | 4.099% | -55.16% | -6.496% |
| 36 | `O=C(NCCC1CN(C2CCCC2)CCO1)c1cc(=O)[nH]c(=O)[nH]1` (configuration not stated) | 6.51% | 12.06% | 2.485% | 5.825% | -6.136% | 49.64% |

5 of the entries, repeated:

compound	MtTrpRS	TcHisRS	PfKRS1	CoaBC	Pks13 thioesterase	Leishmania in macrophages
[H][C@@]12C[C@H](C(=O)NCc3ccccc3)[C@@]([H])(CN(S(=O)(=O)N(C)C)C1)O2	-	-	-	-	-	25.71%
COCCOC(=O)N1CCN2C[C@@H](CO)[C@H](c3ccccc3)[C@H]2C1	-	2.247%	2.738%	-1.211%	-0.1547%	-
CN1CCN(CC2(O)CCCN(S(=O)(=O)c3cn[nH]c3)CC2)CC1 (configuration not stated)	-2.546%	3.39%	2.479%	-28.33%	-17.07%	4.995%
C=Cc1ccc(C(=O)N2CCCC(Nc3ccc(F)cc3)C2)cc1 (configuration not stated)	3.793%	0.8333%	2.22%	4.051%	-17.11%	7.297%
O=C(CNCC1CCCN1c1cccnn1)NCCc1cccs1 (configuration not stated)	0.000009%	23.4%	-2.155%	-31.02%	-27.78%	12.31%